Assay results from PubChem BioAssay (NCATS).
This is one part of the list. Further columns of the screen follow, without active or inactive calls. For some assays here: Compounds called inactive in the main read-out are mostly missing here. Words in brackets tell the shape of the fitted curve; partial curves, single points and poor fits give uncertain potencies.

Chains of the proteins cited; added tags and fusions are not shown. Lines headed by an entry give the natural chain unless they say otherwise; changes in a name come on top.
UniProt P11086: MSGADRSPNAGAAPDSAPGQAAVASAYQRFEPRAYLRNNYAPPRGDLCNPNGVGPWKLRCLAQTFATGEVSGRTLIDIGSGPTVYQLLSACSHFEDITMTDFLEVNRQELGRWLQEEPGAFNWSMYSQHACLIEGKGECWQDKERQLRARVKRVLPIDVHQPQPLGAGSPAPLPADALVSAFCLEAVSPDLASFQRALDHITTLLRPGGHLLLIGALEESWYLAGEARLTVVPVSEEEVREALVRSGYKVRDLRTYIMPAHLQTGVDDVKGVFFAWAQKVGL
UniProt P50135: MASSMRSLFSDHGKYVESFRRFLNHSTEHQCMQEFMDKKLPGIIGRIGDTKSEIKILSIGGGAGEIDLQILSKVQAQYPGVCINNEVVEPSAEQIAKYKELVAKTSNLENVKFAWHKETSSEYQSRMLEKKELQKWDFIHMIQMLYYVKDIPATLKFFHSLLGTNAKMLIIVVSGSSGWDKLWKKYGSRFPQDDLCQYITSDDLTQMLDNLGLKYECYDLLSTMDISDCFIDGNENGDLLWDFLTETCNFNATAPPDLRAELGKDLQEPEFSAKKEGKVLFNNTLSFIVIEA
UniProt P40261: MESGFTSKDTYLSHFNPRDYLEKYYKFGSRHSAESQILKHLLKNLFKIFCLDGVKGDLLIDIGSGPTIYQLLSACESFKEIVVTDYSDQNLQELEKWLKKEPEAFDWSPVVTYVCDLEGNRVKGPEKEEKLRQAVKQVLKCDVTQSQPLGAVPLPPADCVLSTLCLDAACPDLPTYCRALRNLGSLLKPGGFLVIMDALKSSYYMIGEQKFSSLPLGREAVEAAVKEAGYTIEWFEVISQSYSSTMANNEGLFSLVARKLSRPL

Experiments:
[1] = NCATS anti-infectives library activity on the primary C. elegans qHTS viability assay (AID 1745855); details: C. elegans worm area imaging
Procedure, shortened: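 Viability is taken from GFP fluorescence of PE254-GFP-FLuc C. elegans imaged by laser cytometry over 7 days. Ten L1 worms per well grow at 21 °C on TOP10 E. coli capsules with titrated compound; levamisole marks toxicity.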

[2] = qHTS drug screen for cell cycle checkpoint inhibitors in PARPi-resistant BRCA-mutant ovarian cancer cell lines. (AID 1963452); details: PEO1/OlaR viability, CellTiter-Glo luminescence, 96 h
Procedure, shortened: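 PEO1, PEO4 and PEO1/OlaR ovarian cancer cells, 600 per well, exposed 96 h at 37C to a dilution series. Viability read by CellTiter-Glo luminescence, normalized to DMSO and empty wells; activity summarized as Z-AUC.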

[3] = qHTS for identification of novel therapeutic agents for treatment of microphthalmiaassociated transcription factor (MiT) renal cell carcinoma (RCC) (AID 1963991); details: CellTiter-Glo, 48 h; for z-score: stronger effect = lower value
Procedure, shortened: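 Three TFE3-fusion RCC cell lines (UOK109, UOK124, UOK145), 500 cells/well, were exposed to the 1912-compound MIPE 4.0 library for 48 hours at 37 C. Viability was read by CellTiter-Glo luminescence, normalised to DMSO (100%) and empty wells (0%), with 11-concentration curve fits.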

[4] = biological target: Phenylethanolamine N-methyltransferase (Homo sapiens) (UniProt P11086); test: Confirmatory Screen for Target Class Profiling of Small Molecule Inhibitors of Methyltransferases (AID 1745852); details: MTase-Glo luminescence, SAH detection, recombinant enzyme; measured here: PNMT inhibition potency
[5] = biological target: Histamine N-methyltransferase (Homo sapiens) (UniProt P50135); test: as above; details: MTase-Glo luminescence, SAH detection, recombinant enzyme; measured here: HNMT inhibition potency
[6] = biological target: Nicotinamide N-methyltransferase (Homo sapiens) (UniProt P40261); test: as above; details: MTase-Glo luminescence, SAH detection, recombinant enzyme; measured here: NNMT inhibition potency
[7] = day 7, measured here: worm number
[8] = measured here: PEO1 parental viability
[9] = TFE3-RCC UOK109 viability, measured here: UOK109 Z-AUC
[10] = TFE3-RCC viability, measured here: UOK124 Z-AUC
[11] = TFE3-RCC viability, measured here: UOK124 cell viability
[12] = TFE3-RCC viability, measured here: UOK145 Z-AUC
[13] = TFE3-RCC viability, measured here: UOK145 cell viability
[14] = day 7, measured here: worm area, day 3
[15] = day 7, measured here: worm number, day 3

## Cc1sc2c(c1C)C(c1ccc(Cl)cc1)=N[C@@H](CC(=O)Nc1ccc(O)cc1)c1nnc(C)n1-2
[1]; [7]
  AC50: 36500 nM [falling, single point]
[2]; [8]
  AC50: 977 nM [falling, full curve]
[2]; measured here: PEO4 viability
  AC50: 490 nM [falling, full curve]

## CCNC(=O)C[C@@H]1N=C(c2ccc(Cl)cc2)c2cc(OC)ccc2-n2c(C)nnc21
[1]; [7]
  AC50: 2300 nM [falling, full curve]
[2]; [8]
  AC50: 6920 nM [falling, partial curve]
[2]; measured here: PEO4 viability
  AC50: 1380 nM [falling, full curve]
[3]; [9]
  z-score: -1.19
[3]; [10]
  z-score: -0.129
[3]; [11]
  AC50: 743 nM [falling, full curve]
[3]; [12]
  z-score: -0.299
[3]; [13]
  AC50: 4180 nM [falling, partial curve]

## O=C1c2ccccc2C(=O)c2ccccc21
[1]; [14]
  AC50: 9.2 nM [falling, full curve, poor fit]

## COc1cc(N2CCN(C)CC2)ccc1N
[4]
  IC50: 17100 nM [falling, partial curve]

## CN1CCC[C@@H]1Cc1c[nH]c2ccc(Nc3ncccc3[N+](=O)[O-])cc12
[5]
  IC50: 13700 nM [falling, partial curve]

## C1=C2CCCN[C@H]2[C@@H]2C[C@H]1[C@H]1CCCCN1C2
[1]; [15]
  AC50: 9160 nM [rising, partial curve, poor fit]

## Cc1sc2c(c1C)C(c1ccc(Cl)cc1)=N[C@@H](CC(=O)OC(C)(C)C)c1nnc(C)n1-2
[1]; [7]
  AC50: 1450 nM [falling, partial curve, poor fit]
[1]; [14]
  AC50: 10300 nM [falling, partial curve]
[1]; [15]
  AC50: 1030 nM [falling, full curve, poor fit]
[2]; [8]
  AC50: 549 nM [falling, full curve]
[2]; measured here: PEO4 viability
  AC50: 195 nM [falling, full curve]

## Clc1ccc([C@]23CNC[C@H]2C3)cc1Cl
[4]
  IC50: 6070 nM [falling, full curve]

## O=c1ccc2ccc3occc3c2o1
[1]; [7]
  AC50: 26500 nM [falling, partial curve]
[1]; [15]
  AC50: 746 nM [falling, partial curve, poor fit]

## CC[C@H]1/C=C\C=C/C[C@@H](C)[C@H](O)[C@@](C)(O)C(=O)[C@@H](C)[C@H](O)[C@@H](C)C(=O)[C@@H](C)[C@H](O)[C@@H](C)/C=C\C(=O)O[C@@H]2[C@H](C)[C@H](CC1)O[C@]1(CC[C@H](C)[C@H](C[C@@H](C)O)O1)[C@H]2C
[1]; [14]
  AC50: 6480 nM [falling, full curve, poor fit]
[1]; [15]
  AC50: 2580 nM [falling, partial curve, poor fit]
[2]; [8]
  AC50: 34.7 nM [falling, full curve, poor fit]
[2]; measured here: PEO4 viability
  AC50: 30.9 nM [falling, full curve]

## CC1=C(O)C(=O)C=C2C1=CC=C1[C@@]2(C)CC[C@@]2(C)[C@@H]3C[C@](C)(C(=O)O)CC[C@]3(C)CC[C@]12C
[1]; [7]
  AC50: 816 nM [falling, full curve, poor fit]
[1]; [14]
  AC50: 2900 nM [falling, partial curve, poor fit]
[2]; [8]
  AC50: 1100 nM [falling, full curve]
[2]; measured here: PEO4 viability
  AC50: 977 nM [falling, full curve]
[3]; [11]
  AC50: 2960 nM [falling, full curve]
[3]; [13]
  AC50: 1660 nM [falling, full curve]

## C[C@@H]1CC[C@H]2[C@@H](C)C(=O)O[C@@H]3O[C@@]4(C)CC[C@@H]1[C@]32OO4
[1]; [7]
  AC50: 1450 nM [falling, full curve, poor fit]

## CNC1CCc2ccccc21 (centres undefined)
[6]
  IC50: 87900 nM [falling, single point]
[4]
  IC50: 49400 nM [falling, partial curve]

## O=C(Oc1ccc([N+](=O)[O-])cc1)N1CCC(C(O)(c2ccc3c(c2)OCO3)c2ccc3c(c2)OCO3)CC1
[1]; [7]
  AC50: 18300 nM [falling, partial curve]
[1]; [14]
  AC50: 25800 nM [falling, single point]
[1]; [15]
  AC50: 25800 nM [falling, single point]
[3]; [9]
  z-score: -0.402
[3]; [10]
  z-score: 0.114
[3]; [11]
  AC50: 33200 nM [falling, partial curve, poor fit]
[3]; [12]
  z-score: 0.149

## C=C1C[C@@H]2[C@H](CC[C@]3(C)C(=O)CC[C@@H]23)[C@@]2(C)C=CC(=O)C=C12
[2]; measured here: PEO4 viability
  AC50: 24500 nM [falling, single point]
